Experimental data published in patent US20260232767A1 (Janssen Pharmaceutica NV, priority 2023, published 2026).

Test: general procedure: Fmoc solid-phase peptide synthesis; Rink amide AM resin (substitution: 0.95 mmol/g); DIC
Details: purification step, partial HCl salt

Ac-[Pen]*-N-T-[W(7-Me)]-[Lys(Ac)]-[Pen]*-Phe[4-(2-aminoethoxy)]-[2-Nal]-[THP]-E-N-[3-Pal]-Sarc-NH2 (*[Pen]-[Pen]* form disulfide bond)
final HPLC purity: 99.4%
